Experimental data: PubChem BioAssay AID1224830 (NIAID, 2016)
Test: 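Genes whose knock-down alters the TNF-alpha reporter response to LPS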 (primary screen). Cells: human THP-1 monocytic leukaemia cells, TNF dual-luciferase reporter clone, PMA-differentiated to macrophage-like cells. Reagent: siRNA pool against human genes, 50 nM. Timing: LPS for 4 h, given about 3 days after siRNA transfection. Challenge: bacterial LPS (TLR4 ligand), 10 ng/ml. Measurement: 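Ratio of firefly to renilla light, scaled to the plate median and expressed as a robust z-score per replicate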. Scale: TNF reporter robust z-score: higher = stronger TNF reporter response to LPS. Active means: 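a well is active when its z-score exceeds 2.8 or falls below -1.5; control wells carry no call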.
The deposit covers about 18,000 reagents; this is a part drawn at random. Over the whole deposit, about 2,900 (16%) are marked active. 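Calls are made per well; low scores hint the gene aids the LPS response, high scores that it dampens it.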 Repeated entries: four replicate wells of each siRNA pool.

target | TNF reporter robust z-score | outcome
TNS3 (tensin 3) | 2.02 | inactive
TNS3 (tensin 3) | 1.92 | inactive
TNS3 (tensin 3) | 1.94 | inactive
TNS3 (tensin 3) | -0.56 | inactive
TK2 (thymidine kinase 2) | 2.04 | inactive
TK2 (thymidine kinase 2) | 1.52 | inactive
TK2 (thymidine kinase 2) | 1.9 | inactive
TK2 (thymidine kinase 2) | -0.06 | inactive
SLC25A19 | -0.49 | inactive
SLC25A19 | -1.04 | inactive
SLC25A19 | -0.87 | inactive
SLC25A19 | 0.24 | inactive
DRICH1 (aspartate rich 1) | 1.78 | inactive
DRICH1 (aspartate rich 1) | 0.95 | inactive
DRICH1 (aspartate rich 1) | 1.52 | inactive
DRICH1 (aspartate rich 1) | 1.56 | inactive
ASB16 (ankyrin repeat and SOCS box containing 16) | -0.6 | inactive
ASB16 (ankyrin repeat and SOCS box containing 16) | 0.27 | inactive
ASB16 (ankyrin repeat and SOCS box containing 16) | -0.03 | inactive
ASB16 (ankyrin repeat and SOCS box containing 16) | 2.44 | inactive
SPO11 (SPO11 initiator of meiotic double strand breaks) | 0.32 | inactive
SPO11 (SPO11 initiator of meiotic double strand breaks) | 1.76 | inactive
SPO11 (SPO11 initiator of meiotic double strand breaks) | 1.45 | inactive
SLC15A3 | -0.56 | inactive
SLC15A3 | 0.49 | inactive
SLC15A3 | 0.33 | inactive
SLC15A3 | 1.14 | inactive
NDRG1 (N-myc downstream regulated 1) | 0.48 | inactive
NDRG1 (N-myc downstream regulated 1) | 0.93 | inactive
NDRG1 (N-myc downstream regulated 1) | 0.41 | inactive
NDRG1 (N-myc downstream regulated 1) | 0.69 | inactive
MINDY3 (MINDY lysine 48 deubiquitinase 3) | -0.48 | inactive
MINDY3 (MINDY lysine 48 deubiquitinase 3) | 0.75 | inactive
MINDY3 (MINDY lysine 48 deubiquitinase 3) | 0.14 | inactive
MINDY3 (MINDY lysine 48 deubiquitinase 3) | 0.99 | inactive
KCNJ6 (potassium inwardly rectifying channel subfamily J member 6) | -0.34 | inactive
KCNJ6 (potassium inwardly rectifying channel subfamily J member 6) | -0.11 | inactive
KCNJ6 (potassium inwardly rectifying channel subfamily J member 6) | -0.16 | inactive
KCNJ6 (potassium inwardly rectifying channel subfamily J member 6) | -0.62 | inactive
STX7 (syntaxin 7) | 2.94 | active
STX7 (syntaxin 7) | 0.74 | inactive
STX7 (syntaxin 7) | 0.02 | inactive
STX7 (syntaxin 7) | 0.28 | inactive
UQCRB (ubiquinol-cytochrome c reductase binding protein) | 0.24 | inactive
UQCRB (ubiquinol-cytochrome c reductase binding protein) | -0.37 | inactive
UQCRB (ubiquinol-cytochrome c reductase binding protein) | -0.06 | inactive
UQCRB (ubiquinol-cytochrome c reductase binding protein) | -0.78 | inactive
